Experimental data as given in article PMC7820895.
Results are given in words; binding and its absence hold for the method and conditions named. Binding seen in cells or lysates may run through a third protein. Some entries that bind do so weakly or less than the wild type.

Protein sequences, listed by entry. Tags and fused reporters are not part of them. Lines headed by an entry give the natural chain unless they say otherwise; changes in a name come on top. Residues count along the entry.
UniProt P01031: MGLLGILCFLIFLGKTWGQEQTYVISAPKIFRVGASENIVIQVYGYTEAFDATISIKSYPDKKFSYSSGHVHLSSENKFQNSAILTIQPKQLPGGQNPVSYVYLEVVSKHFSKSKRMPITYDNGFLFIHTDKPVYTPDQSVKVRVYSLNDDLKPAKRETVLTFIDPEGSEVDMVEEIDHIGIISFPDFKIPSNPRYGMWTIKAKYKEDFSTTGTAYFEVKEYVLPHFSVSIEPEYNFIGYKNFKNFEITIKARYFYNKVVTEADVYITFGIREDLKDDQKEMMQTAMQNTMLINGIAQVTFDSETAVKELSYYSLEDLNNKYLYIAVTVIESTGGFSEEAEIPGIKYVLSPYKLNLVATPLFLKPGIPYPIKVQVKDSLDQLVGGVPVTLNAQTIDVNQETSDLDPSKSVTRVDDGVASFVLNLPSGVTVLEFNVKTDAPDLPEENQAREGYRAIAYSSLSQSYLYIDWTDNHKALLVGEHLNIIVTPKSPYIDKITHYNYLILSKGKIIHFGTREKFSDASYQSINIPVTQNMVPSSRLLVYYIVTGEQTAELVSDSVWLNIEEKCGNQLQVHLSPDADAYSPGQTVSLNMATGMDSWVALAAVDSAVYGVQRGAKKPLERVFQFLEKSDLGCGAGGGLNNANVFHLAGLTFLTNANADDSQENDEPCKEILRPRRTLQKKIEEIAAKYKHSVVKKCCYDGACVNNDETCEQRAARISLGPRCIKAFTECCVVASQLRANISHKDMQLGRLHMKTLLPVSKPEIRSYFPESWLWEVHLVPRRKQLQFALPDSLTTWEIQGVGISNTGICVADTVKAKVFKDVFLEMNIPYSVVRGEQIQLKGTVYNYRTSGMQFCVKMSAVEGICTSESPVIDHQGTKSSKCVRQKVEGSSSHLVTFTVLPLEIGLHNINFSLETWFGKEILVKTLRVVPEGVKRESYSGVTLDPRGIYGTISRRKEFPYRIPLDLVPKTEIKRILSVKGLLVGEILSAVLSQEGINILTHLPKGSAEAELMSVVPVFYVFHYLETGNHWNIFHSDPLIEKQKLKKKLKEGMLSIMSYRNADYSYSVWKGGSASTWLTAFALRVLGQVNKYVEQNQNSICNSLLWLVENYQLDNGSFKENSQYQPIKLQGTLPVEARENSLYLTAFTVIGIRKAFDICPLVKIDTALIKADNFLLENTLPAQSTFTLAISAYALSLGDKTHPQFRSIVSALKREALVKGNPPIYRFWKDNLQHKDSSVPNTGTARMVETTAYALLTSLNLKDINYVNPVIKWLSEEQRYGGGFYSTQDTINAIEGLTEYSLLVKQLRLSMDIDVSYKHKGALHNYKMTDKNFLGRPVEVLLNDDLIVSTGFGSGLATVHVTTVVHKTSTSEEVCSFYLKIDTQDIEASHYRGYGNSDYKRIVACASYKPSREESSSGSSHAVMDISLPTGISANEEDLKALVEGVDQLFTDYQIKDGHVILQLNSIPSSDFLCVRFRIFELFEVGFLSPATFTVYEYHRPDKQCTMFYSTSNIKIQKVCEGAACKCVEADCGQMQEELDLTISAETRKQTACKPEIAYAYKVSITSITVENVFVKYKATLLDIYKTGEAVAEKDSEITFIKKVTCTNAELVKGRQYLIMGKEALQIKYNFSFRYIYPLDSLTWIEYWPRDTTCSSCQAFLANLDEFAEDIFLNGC
UniProt P07357: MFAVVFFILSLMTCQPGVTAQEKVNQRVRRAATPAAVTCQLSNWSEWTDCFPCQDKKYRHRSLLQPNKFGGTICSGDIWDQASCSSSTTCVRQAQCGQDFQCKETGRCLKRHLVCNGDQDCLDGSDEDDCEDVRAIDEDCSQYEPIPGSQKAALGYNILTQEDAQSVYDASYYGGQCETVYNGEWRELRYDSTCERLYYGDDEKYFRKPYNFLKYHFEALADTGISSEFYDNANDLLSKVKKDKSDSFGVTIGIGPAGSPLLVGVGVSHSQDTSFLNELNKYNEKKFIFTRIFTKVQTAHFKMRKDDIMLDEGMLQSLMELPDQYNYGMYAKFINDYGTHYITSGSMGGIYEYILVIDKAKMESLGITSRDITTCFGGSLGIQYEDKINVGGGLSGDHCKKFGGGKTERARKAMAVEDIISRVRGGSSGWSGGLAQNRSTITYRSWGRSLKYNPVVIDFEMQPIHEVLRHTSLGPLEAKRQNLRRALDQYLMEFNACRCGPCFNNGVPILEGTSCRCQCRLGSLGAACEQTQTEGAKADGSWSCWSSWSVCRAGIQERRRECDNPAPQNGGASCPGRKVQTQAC
UniProt P07358: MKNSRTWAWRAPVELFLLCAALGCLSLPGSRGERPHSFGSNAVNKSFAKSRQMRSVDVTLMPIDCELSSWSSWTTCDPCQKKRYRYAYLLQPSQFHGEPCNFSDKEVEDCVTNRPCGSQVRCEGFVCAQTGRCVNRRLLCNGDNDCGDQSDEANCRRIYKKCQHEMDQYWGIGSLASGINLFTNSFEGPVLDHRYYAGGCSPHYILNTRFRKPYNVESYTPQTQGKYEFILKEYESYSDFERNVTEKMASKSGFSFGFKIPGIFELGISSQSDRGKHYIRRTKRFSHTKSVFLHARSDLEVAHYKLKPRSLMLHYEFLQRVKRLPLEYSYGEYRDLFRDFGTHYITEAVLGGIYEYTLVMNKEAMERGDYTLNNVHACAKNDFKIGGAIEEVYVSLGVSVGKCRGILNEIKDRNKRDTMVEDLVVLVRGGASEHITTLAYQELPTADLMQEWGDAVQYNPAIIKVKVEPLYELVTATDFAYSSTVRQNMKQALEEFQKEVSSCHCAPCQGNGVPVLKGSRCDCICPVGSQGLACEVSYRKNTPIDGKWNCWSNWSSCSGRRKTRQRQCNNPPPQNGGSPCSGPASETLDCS
UniProt P07360: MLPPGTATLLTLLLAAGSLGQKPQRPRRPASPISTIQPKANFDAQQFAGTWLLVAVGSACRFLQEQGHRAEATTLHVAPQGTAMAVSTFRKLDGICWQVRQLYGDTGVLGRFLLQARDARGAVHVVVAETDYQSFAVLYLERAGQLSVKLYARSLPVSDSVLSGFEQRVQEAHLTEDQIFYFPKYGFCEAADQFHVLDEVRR
UniProt P13671, residues 22-934: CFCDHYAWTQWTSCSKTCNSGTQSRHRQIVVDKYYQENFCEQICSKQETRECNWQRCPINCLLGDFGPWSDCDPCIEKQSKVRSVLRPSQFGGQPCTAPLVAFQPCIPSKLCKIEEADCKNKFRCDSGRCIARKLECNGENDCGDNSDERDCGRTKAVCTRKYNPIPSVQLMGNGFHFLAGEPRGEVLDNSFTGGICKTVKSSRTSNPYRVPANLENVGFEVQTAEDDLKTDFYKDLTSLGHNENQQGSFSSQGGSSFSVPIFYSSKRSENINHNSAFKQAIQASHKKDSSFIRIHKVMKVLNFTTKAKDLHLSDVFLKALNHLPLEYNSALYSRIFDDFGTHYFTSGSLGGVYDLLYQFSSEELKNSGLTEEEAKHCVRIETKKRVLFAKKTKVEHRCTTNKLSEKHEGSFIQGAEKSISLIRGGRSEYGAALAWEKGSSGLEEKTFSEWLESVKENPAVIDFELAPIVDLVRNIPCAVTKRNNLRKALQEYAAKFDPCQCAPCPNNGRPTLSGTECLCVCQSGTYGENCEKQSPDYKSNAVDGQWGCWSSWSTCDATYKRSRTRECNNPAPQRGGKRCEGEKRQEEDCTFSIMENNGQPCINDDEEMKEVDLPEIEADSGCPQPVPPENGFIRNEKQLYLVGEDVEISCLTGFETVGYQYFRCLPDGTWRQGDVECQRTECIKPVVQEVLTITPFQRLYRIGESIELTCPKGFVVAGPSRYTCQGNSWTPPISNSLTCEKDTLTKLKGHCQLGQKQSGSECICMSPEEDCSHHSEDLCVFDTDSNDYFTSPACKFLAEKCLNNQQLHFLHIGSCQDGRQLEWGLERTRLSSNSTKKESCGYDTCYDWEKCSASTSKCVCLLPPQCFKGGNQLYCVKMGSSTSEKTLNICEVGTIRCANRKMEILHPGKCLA
UniProt P10643, residues 23-843: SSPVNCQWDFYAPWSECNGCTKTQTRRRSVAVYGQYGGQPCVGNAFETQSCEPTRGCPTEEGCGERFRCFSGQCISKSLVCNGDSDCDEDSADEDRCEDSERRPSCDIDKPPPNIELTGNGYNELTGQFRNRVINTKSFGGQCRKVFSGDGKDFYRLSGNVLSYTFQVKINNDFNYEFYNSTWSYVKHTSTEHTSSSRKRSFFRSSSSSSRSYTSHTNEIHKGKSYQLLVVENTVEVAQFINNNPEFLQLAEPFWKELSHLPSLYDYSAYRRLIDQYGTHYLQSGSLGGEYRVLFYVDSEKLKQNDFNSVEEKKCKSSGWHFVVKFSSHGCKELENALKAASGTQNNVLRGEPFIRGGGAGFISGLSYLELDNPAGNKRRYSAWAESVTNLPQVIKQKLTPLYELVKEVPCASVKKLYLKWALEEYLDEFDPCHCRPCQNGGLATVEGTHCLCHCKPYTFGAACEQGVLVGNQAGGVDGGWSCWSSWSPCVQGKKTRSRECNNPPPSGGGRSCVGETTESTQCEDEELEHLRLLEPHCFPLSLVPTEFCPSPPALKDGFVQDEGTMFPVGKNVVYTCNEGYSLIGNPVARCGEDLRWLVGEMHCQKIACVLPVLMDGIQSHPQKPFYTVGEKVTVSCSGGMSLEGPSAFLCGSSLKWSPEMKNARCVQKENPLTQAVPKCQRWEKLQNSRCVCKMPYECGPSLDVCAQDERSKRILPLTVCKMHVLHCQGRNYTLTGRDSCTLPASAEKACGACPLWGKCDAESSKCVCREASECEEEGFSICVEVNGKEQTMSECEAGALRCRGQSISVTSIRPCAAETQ

How the values were obtained:
Experiment in all cases: cross-linking
[1] = target: complement component C5b (human) (UniProt P01031)
[2] = target: complement component C8 (α, β, and γ) (human) (UniProt P07357+P07358+P07360)
[3] = target: complement component C9 (human) (UniProt P02748)
[4] = target: complement component C6 (human) (UniProt P13671)
[5] = target: complement component C7 (human) (UniProt P10643)

Substance: complement component C6 (from UniProt P13671 22-934)
- binding [1]: binds

Substance: complement component C9 (from UniProt P02748 22-559)
- binding [2]: binds
- binding [3]: binds

Substance: complement component C7 (from UniProt P10643 23-843)
- binding [4]: binds

Substance: complement component C8 (α, β, and γ) (from UniProt P07357 31-584; P07358 55-591; P07360 21-202) (complex)
- binding [5]: binds
